Test results published in patent US20070185089A1, “Benzazepine derivatives for the treatment of neurological and psychiatric disorders” (Glaxo Group Limited, priority 2004, published 2007).
Values joined by “and” are separate entries in the source; they are usually repeats but may differ in a detail not shown here. Identical values can stand only once. Some results were stated once for a whole list of compounds, not compound by compound.

Amino acid sequences for entries named in this document (tags omitted). A change or cut given only in a name is not applied to a line headed by its entry.
UniProt P35367, whole entry: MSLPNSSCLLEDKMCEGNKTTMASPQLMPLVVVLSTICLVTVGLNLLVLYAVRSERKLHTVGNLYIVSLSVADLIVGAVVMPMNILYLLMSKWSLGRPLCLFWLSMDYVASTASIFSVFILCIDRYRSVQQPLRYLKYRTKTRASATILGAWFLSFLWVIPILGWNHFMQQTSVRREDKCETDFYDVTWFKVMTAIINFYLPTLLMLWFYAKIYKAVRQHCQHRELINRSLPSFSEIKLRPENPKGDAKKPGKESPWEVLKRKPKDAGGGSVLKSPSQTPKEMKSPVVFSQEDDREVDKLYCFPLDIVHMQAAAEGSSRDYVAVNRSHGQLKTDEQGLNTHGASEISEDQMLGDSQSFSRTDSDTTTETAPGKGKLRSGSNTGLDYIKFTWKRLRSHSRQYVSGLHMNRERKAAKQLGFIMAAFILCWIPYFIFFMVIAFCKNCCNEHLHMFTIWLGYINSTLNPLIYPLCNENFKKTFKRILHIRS
UniProt Q9Y5N1: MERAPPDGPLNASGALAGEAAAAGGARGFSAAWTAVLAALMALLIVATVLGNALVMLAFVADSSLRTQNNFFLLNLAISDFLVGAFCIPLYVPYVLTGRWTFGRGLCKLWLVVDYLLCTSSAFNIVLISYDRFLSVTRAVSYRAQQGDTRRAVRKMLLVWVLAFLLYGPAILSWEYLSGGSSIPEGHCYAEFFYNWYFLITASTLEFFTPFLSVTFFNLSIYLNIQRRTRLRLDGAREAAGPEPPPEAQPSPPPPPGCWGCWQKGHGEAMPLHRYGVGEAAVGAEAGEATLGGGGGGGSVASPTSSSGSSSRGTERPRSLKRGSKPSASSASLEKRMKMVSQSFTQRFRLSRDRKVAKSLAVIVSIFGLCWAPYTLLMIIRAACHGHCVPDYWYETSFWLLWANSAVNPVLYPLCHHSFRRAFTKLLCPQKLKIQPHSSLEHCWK

Tests used:
human H1 receptor = target: T1, human H1 receptor (Homo sapiens, UniProt P35367); experiment: Histamine H1 functional antagonist assay (FLIPR, cell fluorescence); type: cell-based; conditions: CHO cells expressing human H1 receptor, histamine at EC80
T1 construct: expressed in transfected cells

histamine H3 receptor = target: T2, histamine H3 receptor (Homo sapiens, UniProt Q9Y5N1); experiment: Histamine H3 functional antagonist assay (method A), [35S]-GTPγS SPA on membranes; type: biochemical
T2 construct: expressed in transfected cells; host or cells: CHO K1 cells carrying pSwitch, transfected with pGeneH3; mifepristone-induced; clone 3H3; membranes

| Structure (SMILES) | antagonism in the histamine H1 functional antagonist assay (human H1 receptor) [pKb] | antagonism in the histamine H3 functional antagonist assay (method A) (histamine H3 receptor; histamine at EC80) | antagonism in the histamine H3 functional antagonist assay (method A) (histamine H3 receptor; histamine at EC80, trifluoroacetate salt) |
| --- | --- | --- | --- |
| N#Cc1ccc(NC(=O)N2CCC(c3ccc4c(c3)CCN(C3CCC3)CC4)CC2)cc1 [Example E237, N-(4-cyanophenyl)-4-(3-cyclobutyl-2,3,4,5-tetrahydro-1H-3-benzazepin-7-yl)-1-piperidinecarboxamide] | < 6.3 | > 9.0 pKb and > 6.5 pKb |  |
| O=S(=O)(c1cccc(Cl)c1)N1CCN(c2ccc3c(c2)CCN(C2CCCC2)CC3)CC1 [Example E44, 7-{4-[(3-Chlorophenyl)sulfonyl]-1-piperazinyl}-3-cyclopentyl-2,3,4,5-tetrahydro-1H-3-benzazepine] | < 6.3 | > 6.5 pKb |  |
| Cc1ccc(S(=O)(=O)N2CCN(c3ccc4c(c3)CCN(C3CCCC3)CC4)CC2)cc1 [Example E41, 3-Cyclopentyl-7-{4-[(4-methylphenyl)sulfonyl]-1-piperazinyl}-2,3,4,5-tetrahydro-1H-3-benzazepine] | < 6.3 | > 6.5 pKb |  |
| O=S(=O)(c1cc(Cl)c(O)c(Cl)c1)N1CCN(c2ccc3c(c2)CCN(C2CCCC2)CC3)CC1 [Example E28, 2,6-Dichloro-4-{[4-(3-cyclopentyl-2,3,4,5-tetrahydro-1H-3-benzazepin-7-yl)-1-piperazinyl]sulfonyl}phenol] | < 6.3 | > 6.5 pKb |  |
| O=C(O)C(F)(F)F.O=C(c1cc2cc(Cl)ccc2s1)N1CCN(c2ccc3c(c2)CCN(C2CCCC2)CC3)CC1 [Example E105, 7-{4-[(5-Chloro-1-benzothien-2-yl)carbonyl]-1-piperazinyl}-3-cyclopentyl-2,3,4,5-tetrahydro-1H-3-benzazepine trifluoroacetate salt] | < 6.3 |  | > 9.0 pKb and > 6.5 pKb |
| O=S(=O)(c1ccc2c(c1)OCCO2)N1CCN(c2ccc3c(c2)CCN(C2CCCC2)CC3)CC1 [Example E24, 3-Cyclopentyl-7-[4-(2,3-dihydro-1,4-benzodioxin-6-ylsulfonyl)-1-piperazinyl]-2,3,4,5-tetrahydro-1H-3-benzazepine] | < 6.3 | > 6.5 pKb |  |
| O=S(=O)(c1csc2ccccc12)N1CCN(c2ccc3c(c2)CCN(C2CCCC2)CC3)CC1 [Example E35, 7-[4-(1-Benzothien-3-ylsulfonyl)-1-piperazinyl]-3-cyclopentyl-2,3,4,5-tetrahydro-1H-3-benzazepine] | < 6.3 | > 6.5 pKb |  |
| CNC(=O)Cc1ccc(-c2ccc3c(c2)CCN(C2CCC2)CC3)cc1 [Example E197, 2-[4-(3-Cyclobutyl-2,3,4,5-tetrahydro-1H-3-benzazepin-7-yl)phenyl]-N-methylacetamide] | < 6.3 | > 6.5 pKb |  |
| O=C(c1cnn2cccnc12)N1CCC(c2ccc3c(c2)CCN(C2CCC2)CC3)CC1 [Example E217, 3-cyclobutyl-7-[1-(pyrazolo[1,5-a]pyrimidin-3-ylcarbonyl)-4-piperidinyl]-2,3,4,5-tetrahydro-1H-3-benzazepine] | < 6.3 | > 9.0 pKb and > 6.5 pKb |  |
| COc1ccc(S(=O)(=O)N2CCN(c3ccc4c(c3)CCN(C3CCCC3)CC4)CC2)cc1OC [Example E25, 7-(4-{[3,4-Bis(methyloxy)phenyl]sulfonyl}-1-piperazinyl)-3-cyclopentyl-2,3,4,5-tetrahydro-1H-3-benzazepine] | < 6.3 | > 6.5 pKb |  |
